This passage reports survivor count and T/C results from PubChem BioAssay AID342 (DTP/NCI, 2004).

The list shows only some results of the screen, not a fair sample: it gathers tests that were run many times, whatever their T/C, doses with no T/C, and many T/C values between a quarter and a half above the control. Further doses and runs are listed elsewhere. T/C: endpoint of the treated group in % of that of the vehicle group. Schedules are NCI's codes, read here as Q, the interval in days (D) or hours (H), X, the number of doses. Some schedules carry Z or #; the key to these is not given. Some T/C values are followed by the survivors on the day toxicity was checked, most often the fifth; where none is given, no animal had died by that day. Some doses were run more than once; the values are given in rising order. Some doses have a count of surviving animals in place of a T/C: the source holds a T/C of zero for them, seemingly a mark for toxic or unscored doses. Counts of survivors are from the toxicity check (mostly the fifth day) where no day follows; animals may have died later.

The assay has as its system Swiss mice, Sarcoma 180 sc, mean tumor weight T/C. The experiment in a line: NCI In Vivo Anticancer Drug Screen. Data for tumor model Sarcoma 180 (subcutaneous) in Swiss mice. As to conditions: T/C endpoint: mean tumor weight, higher T/C = larger tumour; for T/C: evaluated on day 8. The method in brief: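 Mice bearing transplanted tumors were treated with compound, and survival or tumor size was measured. Values are expressed as the treated-group measurement (T) divided by the vehicle-treated control measurement (C).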

The mark [1] stands for this setting: dose: 50.0 mg/kg/injection, schedule: Q01DX007 (ip), vehicle: carboxymethylcellulose (CMC).
[2] abbreviates: dose: 100.0 mg/kg/injection, schedule: Q01DX007 (ip), vehicle: saline.
Where [3] appears, read: dose: 4.5 mg/kg/injection, schedule: Q#A X014 (ip), vehicle: saline.

Take `CCN(CC)P(=O)(N1CC1)N1CC1`: the survivor count (dose: 3.0 mg/kg/injection, schedule: Q#A X014 (ip), vehicle: methylcellulose (MC)) is 3 of 6; the survivor count (dose: 7.0 mg/kg/injection, schedule: Q01DX007 (ip), vehicle: saline) was 3 of 6; the survivor count (dose: 11.0 mg/kg/injection, schedule: Q01DX007 (ip), vehicle: saline) was 2 of 6; the survivor count (dose: 17.0 mg/kg/injection, schedule: Q01DX007 (ip), vehicle: saline) is listed as 2 of 6. For the compound `CC1OC(OC2C(CO)OC(O[C@H]3CC[C@@]4(C)C(=CC[C@H]5[C@@H]6C[C@@H]7O[C@@]8(CC[C@H](C)CN8)[C@@H](C)[C@@H]7[C@@]6(C)CC[C@@H]54)C3)C(OC3OC(C)C(O)C(O)C3O)C2O)C(O)C(O)C1O` (some centres not stated), the survivor count (dose: 20.0 mg/kg/injection, schedule: Q01DX007 (ip), vehicle: saline) is reported as 2 of 4. For `C[C@@H]1C[C@H]2[C@@H]3CCC4=CC(=O)C=C[C@]4(C)[C@@]3(F)[C@@H](O)C[C@]2(C)[C@@]1(O)C(=O)CO`, the survivor count is on record as 1 of 6 (dose: 36.0 mg/kg/injection, schedule: Q01DX007 (sc), vehicle: steroid suspending solution) and 1 of 6 (dose: 54.0 mg/kg/injection, schedule: Q01DX007 (sc), vehicle: steroid suspending solution). As for `CC1OC2CC(=O)OC2C2=C1C(=O)c1c(O)c3c(c(O)c1C2=O)C1CC(O)C3(O)C(C)O1` (configuration not stated), the T/C by setting is: (dose: 0.05 mg/kg/injection, schedule: Q01DX007 (ip), vehicle: saline) 126 % of control; (dose: 0.2 mg/kg/injection, schedule: Q01DX007 (ip), vehicle: saline) 127 % of control. Further, the survivor count is 0 of 6 (dose: 48.0 mg/kg/injection, schedule: Q01DX007 (ip), vehicle: saline) and 0 of 6 (dose: 96.0 mg/kg/injection, schedule: Q01DX007 (ip), vehicle: saline).

On to `CCN(CC)c1ccc(/C=C/c2ccnc3ccccc23)cc1`, for which the survivor count reads like this: (dose: 15.5 mg/kg/injection, schedule: Q01DX007 (ip), vehicle: carboxymethylcellulose (CMC)) 5 of 10; (dose: 15.5 mg/kg/injection, schedule: Q01DX007 (ip), vehicle: other) 1 of 10; (dose: 49.25 mg/kg/injection, schedule: Q01DX007 (ip), vehicle: carboxymethylcellulose (CMC)) 5 of 10.

As for `CCCCn1cnc2c(=S)nc[nH]c21`, the survivor count (dose: 200.0 mg/kg/injection, schedule: Q01DX007 (ip), vehicle: carboxymethylcellulose (CMC)) is 0 of 6. As for `CCc1nc(N)nc(N)c1-c1ccc(Cl)c(Cl)c1.[Cl][Pd][Cl]`, the survivor count reads like this: (dose: 22.5 mg/kg/injection, schedule: Q01DX007 (ip), vehicle: carboxymethylcellulose (CMC)) 4 of 7; (dose: 33.0 mg/kg/injection, schedule: Q01DX007 (ip), vehicle: carboxymethylcellulose (CMC)) 0 of 6; under setting [1], 0 of 6; (dose: 75.0 mg/kg/injection, schedule: Q01DX007 (ip), vehicle: carboxymethylcellulose (CMC)) 0 of 6. As to `C[C@@H](N)[C@@H](O)c1ccccc1`, the survivor count by setting is: (dose: 25.0 mg/kg/injection, schedule: Q01DX007 (ip), vehicle: saline) 2 of 6; (dose: 50.0 mg/kg/injection, schedule: Q01DX007 (ip), vehicle: saline) 0 of 6; under setting [2], 0 of 6.

As for `C=C(C)C(=O)OCC1CO1` (configuration not stated), the T/C (dose: 300.0 mg/kg/injection, schedule: Q01DX007 (ip), vehicle: other) was 125 % of control. Turning to `CN(N=O)C(N)=O`, the survivor count (dose: 11.25 mg/kg/injection, schedule: Q#A X014 (ip), vehicle: carboxymethylcellulose (CMC)) is listed as 6 of 10.

`O=C(Nc1ccc(C2=NCCN2)cc1)c1ccc(C(=O)Nc2ccc(C3=NCCN3)cc2)c(Cl)c1`: under “dose: 10.0 mg/kg/injection, schedule: Q01DX007 (ip), vehicle: water”, the T/C is 131 % of control. For the compound `Cc1ncc(CO)c(CNC(=O)N(C)N=O)c1O`, the survivor count (dose: 125.0 mg/kg/injection, schedule: Q01DX007 (ip), vehicle: carboxymethylcellulose (CMC)) is recorded as 1 of 6. For `CS(=O)(=O)OCCC(=O)N1CCN(C(=O)CCOS(C)(=O)=O)CC1`, the survivor count reads like this: (dose: 100.0 mg/kg/injection, schedule: Q#A X014 (ip), vehicle: methylcellulose (MC)) 2 of 6 and 3 of 6; (dose: 200.0 mg/kg/injection, schedule: Q01DX007 (ip), vehicle: saline) 4 of 7. In the case of `CN(CC(=O)O)C(=N)N`, under “dose: 500.0 mg/kg/injection, schedule: Q#A X014 (ip), vehicle: water”, the T/C was 137 % of control. Take `CCCCCCCCCCC(O)CN1CCN(c2ccc(C)cc2)CC1` (configuration not stated): where the note is “dose: 375.0 mg/kg/injection, schedule: Q01DX007 (ip), vehicle: olive oil, sesame oil, peanut oil”, the survivor count is recorded as 3 of 6.

Take `CC(=O)[C@@]1(O)[C@H](C)C[C@H]2[C@@H]3C=C(C)C4=Cc5c(cnn5-c5ccccc5)C[C@]4(C)[C@H]3[C@@H](O)C[C@@]21C`: the survivor count (dose: 8.0 mg/kg/injection, schedule: Q01DX007 (sc), vehicle: steroid suspending solution) is reported as 2 of 6.

Take `CCCCCCCCCCCCCCCCNc1cccc2ccccc12`: the survivor count (dose: 375.0 mg/kg/injection, schedule: Q#A X014 (ip), vehicle: methylcellulose (MC)) is listed as 1 of 6. On to `S=P(N1CC1)(N1CC1)N1CC1`, for which the survivor count (dose: 1750.0 mg/kg/injection, schedule: Q#A X014 (ip), vehicle: carboxymethylcellulose (CMC)) was 5 of 10. Regarding `CC(=O)Nc1cc2c(cc1Br)-c1ccccc1C2O` (configuration not stated), the survivor count (dose: 296.0 mg/kg/injection, schedule: Q01DX007 (ip), vehicle: saline) was 1 of 6. As for `[N-]=[N+]=NC1(C(=O)O)CCCC1`, the T/C (dose: 150.0 mg/kg/injection, schedule: Q01DX007 (ip), vehicle: carboxymethylcellulose (CMC)) was 141 % of control. Regarding `CN1C=c2c3c(ccc2=C2C=CC4C=C5OCOC5=CC4=C21)OCO3` (configuration not stated), the T/C by setting is: under setting [3], 50, 59, 63 [4 of 6 alive], 81 % of control; (dose: 6.5 mg/kg/injection, schedule: Q#A X014 (ip), vehicle: saline) 43 [5 of 6 alive], 59, 83, 102 % of control [5 of 6 alive]. The survivor count is on record as 4 of 7 under setting [3]; 1 of 6 (dose: 10.0 mg/kg/injection, schedule: Q#A X014 (ip), vehicle: saline); 4 of 7 (dose: 40.0 mg/kg/injection, schedule: Q#A X014 (oral), vehicle: saline). For `CC(=O)Nc1cc2c(cc1Br)-c1ccc(F)cc1C2`, the survivor count (dose: 750.0 mg/kg/injection, schedule: Q01DX007 (ip), vehicle: other) is on record as 3 of 6. As for `CN(C)[C@@H]1C(=O)C(C(=O)NCNCCCC(=O)O)=C(O)[C@@]2(O)C(=O)C3=C(O)c4c(O)cccc4[C@@](C)(O)[C@H]3C[C@@H]12`, the survivor count reads like this: (dose: 250.0 mg/kg/injection, schedule: Q#A X014 (ip), vehicle: saline) 1 of 6; (dose: 375.0 mg/kg/injection, schedule: Q#A X014 (ip), vehicle: saline) 1 of 6.

On to `Nc1ccc(C(=O)NCCCC(=O)O)cc1`, for which the survivor count (dose: 250.0 mg/kg/injection, schedule: Q01DX007 (ip), vehicle: water) was 0 of 60.

Regarding `CC(C)=CCC1=C(O)c2ccccc2C(=O)C1=O`, the T/C (dose: 45.0 mg/kg/injection, schedule: Q01DX007 (ip), vehicle: other) was 125 % of control. For the same compound, for the setting “dose: 300.0 mg/kg/injection, schedule: Q#A X014 (oral), vehicle: other”, the survivor count is on record as 1 of 6. Regarding `CCOC(=O)NP(=O)(N1CC1)N1CC1`, the T/C (dose: 3750.0 micrograms/kg/injection, schedule: Q01DX007 (ip), vehicle: carboxymethylcellulose (CMC)) was 125 % of control.

As for `Cc1ccccn1`, the T/C under setting [2] is 129 % of control. In addition, the survivor count (dose: 600.0 mg/kg/injection, schedule: Q01DX007 (ip), vehicle: saline) was 3 of 6. With `CCCCCC/C=C/[N+]([O-])=NC(COC)C(C)O` (configuration not stated), under “dose: 12.0 mg/kg/injection, schedule: Q01DX007 (ip), vehicle: carboxymethylcellulose (CMC)”, the T/C is 131 % of control. In addition, the survivor count was 0 of 6 (dose: 25.0 mg/kg/injection, schedule: Q01DX007 (ip), vehicle: carboxymethylcellulose (CMC)) and 0 of 6 under setting [1].
